Test results: paper PMC6337506
No constants are given. Whether binding was seen depends on the method and setting. Binding calls can cover weak binding; strength is not graded here. Tags and fused reporters may be left off the sequences shown. One block for each molecule: values may come before it.

Chains of the proteins cited; added tags and fusions are not shown. Lines headed by an entry give the natural chain unless they say otherwise; changes in a name come on top.
UniProt O64817: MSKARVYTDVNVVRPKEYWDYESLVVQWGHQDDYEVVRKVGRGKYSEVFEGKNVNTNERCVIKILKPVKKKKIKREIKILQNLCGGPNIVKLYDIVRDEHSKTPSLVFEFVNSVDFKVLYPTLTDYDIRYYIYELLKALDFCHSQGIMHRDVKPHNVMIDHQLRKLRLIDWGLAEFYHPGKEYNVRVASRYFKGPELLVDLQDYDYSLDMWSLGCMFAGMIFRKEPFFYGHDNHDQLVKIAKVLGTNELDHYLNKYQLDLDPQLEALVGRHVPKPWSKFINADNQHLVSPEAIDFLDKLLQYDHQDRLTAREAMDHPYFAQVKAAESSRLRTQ

Experiments:
[1] = molecular target: TACO LEAF (TCO) fused to the GAL4 DNA-binding domain (Arabidopsis thaliana) (UniProt Q5XV74); assay: two-hybrid; directed yeast two-hybrid; TCO fused to the GAL4 DNA-binding domain, CK2 alpha subunits fused to the GAL4 activation domain; positive interactions indicated by blue coloration
[2] = molecular target: TACO LEAF (TCO) fused to the GAL4 DNA-binding domain (Arabidopsis thaliana) (UniProt Q5XV74); assay: two-hybrid; yeast two-hybrid screen; TCO as bait, Arabidopsis floral cDNA library as prey; 1.7 × 10^6 yeast transformants

binding [1]: no binding
Molecule: AtCKA3(full-length) fused to the GAL4 activation domain (from UniProt O64817)

binding [2]: binds
binding [1]: binds
B1: ∆AtCKA1(aa25-409) fused to the GAL4 activation domain (domain or fragment, UniProt Q08467 25-409)
chain: AVLALRAPTAHSPILRSSIVTPTARAVSEVSGCTTIDPDFLVEISDSNQTRAMSKARVYTEVNVIRPKDYWDYESLIVQWGEQDDYEVVRKVGRGKYSEVFEGINVNSKEKCIIKILKPVKKKKIRREIKILQNLCGGPNIVKLLDVVRDQHSKTPSLIFEYVNSTDFKVLYPTLTDYDIRYYIYELLKALDFCHSQGIMHRDVKPHNVMIDHELRKLRLIDWGLAEFYHPGKEYNVRVASRYFKGPELLVDLQDYDYSLDMWSLGCMFAGMIFRKEPFFYGHDNQDQLVKIAKVLGTDELNAYLNKYQLELDPQLEALVGRHSRKPWSKFINADNQHLVSPEAIDFLDKLLRYDHQDRLTAKEAMAHAYFAQVRAAETSRMRSQ

binding [2]: binds
binding [1]: binds
B2: ∆AtCKA2(aa32-403) fused to the GAL4 activation domain (domain or fragment, UniProt Q08466 32-403)
chain: LIPPLTCVNTGTVESDVTGIRFDRCLDTDSLAKISLSTVMSKARVYTDVNVIRPKDYWDYESLNVQWGEQDDYEVVRKVGRGKYSEVFEGINMNNNEKCIIKILKPVKKKKIRREIKILQNLCGGPNIVKLLDVVRDQHSKTPSLIFEYVNSTDFKVLYPTLTDYDIRYYIYELLKALDFCHSQGIMHRDVKPHNVMIDHELRKLRLIDWGLAEFYHPGKEYNVRVASRYFKGPELLVDLQDYDYSLDMWSLGCMFAGMIFRKEPFFYGHDNQDQLVKIAKVLGTDELNAYLNKYQLELDTQLEALVGRHSRKPWSKFINADNRHLVSPEAIDYLDKLLRYDHQDRLTAKEAMAHPYFAQVRAAESSRMRTQ
